The values below come from PubChem BioAssay AID445 (National Center for Advancing Translational Sciences (NCATS), 2006).

The nature of this assay: IkB Signaling. Conditions: ABC-DLBCL IkBa-CBG/CBR dual luciferase ratio (green luciferase fused to IkBa over red control in OCI-Ly3 lymphoma cells), 4 h. The method in brief:
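Luminescence ratio of IκBα-fused green versus native red beetle luciferase in OCI-Ly3 cells, 4 h post-doxycycline with compound; red signal alone, scaled from basal (0%) to zero light (-100%), flagged nonspecific or cytotoxic effects.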

Setting [1] is: measured here: control luc red channel unless noted.
The mark [2] stands for this setting: measured here: IkB-luc green channel.
Where [3] appears, read: measured here: control luc red channel.

Some of the results follow. These are further read-outs of the screen, such as a control signal, another cell line or another target. No call is given for them. Most of these compounds were active or inconclusive in the main read-out, so they are no random draw. The note in brackets gives the kind of curve behind each potency; many fits are weak.

As for `COc1ccc(CCN2C(=O)N(c3ccccc3)C(=O)C2CC(=O)Nc2ccccc2)cc1` (stereo not drawn), the AC50 under setting [1] was 39.8 µM [falling, single point]. On the same count and under the same terms, with `Cc1nc(N2CCOCC2)c2c(C(=O)N3CCN(c4cccc(C)c4C)CC3)c(C)oc2n1` the figure was 25.1 µM [falling, single point]; with `COc1ccc(Nc2cc(C(=O)NCc3ccccc3)c3ccccc3n2)c(OC)c1`, 10 µM [falling, partial curve]; with `COc1ccc2c(CNCCc3ccccc3)c(C(=O)O)n(Cc3cccc(F)c3)c2c1`, 12.6 µM [falling, partial curve]. Turning to `COc1ccc(-c2noc(-c3cccc(OC)c3OC)n2)cc1`, the AC50 under setting [1] was 39.8 µM [falling, single point].

As for `CCN(CC)S(=O)(=O)c1ccc2oc(C(=O)Nc3ccc(OC)cc3OC)c(C)c2c1`, under setting [1], the AC50 is 3.16 µM [rising, full curve, poor fit] [measured here: IkB-luc green channel]. Take `COc1ccc(N(Cc2cccs2)C(=O)COc2cc(C)c(Cl)c(C)c2)cc1`: the AC50 under setting [1] was 15.8 µM [falling, partial curve]. `Cc1cccc(NC(=O)Cc2ccc(-n3c(C)nc4cccnc43)cc2)c1C`: the half-maximal activity concentration (AC50) under setting [1] is 25.1 µM [falling, single point]. Take `Cc1cc(-c2ccc(S(=O)(=O)Nc3ccc(Br)c(C)c3)s2)on1`: under setting [1], the AC50 was 20 µM [falling, partial curve]. The same measure, in the same setting: under `CCOC(=O)C1CCN(C(=O)c2oc3ccc(S(=O)(=O)N4CC(C)CC(C)C4)cc3c2C)CC1` (stereo not drawn) stands 10 µM [falling, partial curve]; under `Cc1ccc2c(c1)-c1c(cnn1CC(=O)N1CCN(c3cc(Cl)ccc3C)CC1)CO2`, 25.1 µM [falling, partial curve]; under `CC(C)C(NS(=O)(=O)c1cccc2cccnc12)C(=O)Nc1ccc(OC(F)(F)F)cc1` (stereo not drawn), 25.1 µM [falling, single point]. In the case of `O=C(c1ccccc1)c1ccc2nc(Nc3cc(Cl)ccc3O)c3nncn3c2c1`, the AC50 under setting [1] was 0.316 µM [rising, partial curve]. Regarding `Cc1ccc(C)c(NC(=O)NCc2ccc3c(c2)CCN3C(=O)c2ccccc2)c1`, the AC50 under setting [1] was 39.8 µM [rising, single point] [measured here: IkB-luc green channel]. Turning to `COc1ccc(S(=O)(=O)NCc2ccc(C(=O)NCc3ccccc3)cc2)cc1`, under setting [1], the AC50 is 3.16 µM [falling, full curve, poor fit]. Consider `O=C(Cn1c2ncccc2c(=O)n1-c1ccccc1)Nc1ccc(Cl)cc1C(F)(F)F`, for which the AC50 under setting [1] was 3.98 µM [rising, partial curve]. The same measure, in the same setting: with `COCc1cc(C)nc2sc3c(c12)NC(c1ccc(O)cc1)N(c1ccc(C)cc1)C3=O` (stereo not drawn) the figure was 15.8 µM [falling, partial curve]; with `CCN(C(=O)c1cn(-c2ccc(OC)cc2)c(=O)c2ccccc12)c1cccc(Cl)c1`, 12.6 µM [falling, partial curve]; with `Cc1cccc(C(=O)Nc2ccc3oc(-c4ccncc4)nc3c2)c1`, 39.8 µM [falling, single point]. Same read-out and setting: with `CCOC(=O)C1CCCN(S(=O)(=O)c2ccc3[nH]c(=O)oc3c2)C1` (stereo not drawn) the figure was 20 µM [falling, single point]. In the case of `COc1ccccc1NC(=O)c1sc2ncn(Cc3ccccc3Cl)c(=O)c2c1C`, the concentration at half-maximal activity (AC50) under setting [1] was 3.98 µM [rising, single point]. Still for that read-out and setting: under `O=C(Nc1ccc(CN2CCOCC2)cc1)c1ccc(-c2ccc(Br)cc2)o1` stands 6.31 µM [falling, full curve]; under `COc1cccc(CN2C(=O)CN(C3CCCCC3)C(=O)C2c2ccc(OC)c(OC)c2)c1` (stereo not drawn), 0.0316 µM [rising, full curve]. Take `CCC(C)Sc1c(C(C)C)cnc2c1c(=O)n(C)c(=O)n2C` (stereo not drawn): the AC50 under setting [1] was 0.0251 µM [falling, full curve]. Same read-out and setting: under `COc1ccc(-n2c(/C=C/c3c(C)[nH]c4ccccc34)nc3ccccc3c2=O)cc1` stands 15.8 µM [falling, single point]. `COc1ccccc1C(=O)Nc1ccc(OCc2cc(=O)n3ccc(C)cc3n2)cc1`: the concentration at half-maximal activity (AC50) under setting [1] is 1 µM [falling, full curve, poor fit].

With `CC1=C(C(=O)OC(C)C)C(C)C(C(=O)OC(C)C)=C(C)N1`, the half-maximal activity concentration (AC50) under setting [1] is 20 µM [falling, partial curve].

For `COc1ccc(C(=O)Oc2cc(-c3ccc4c(c3)OCO4)cc(=O)c3c(C)oc(C)c23)cc1`, the AC50 under setting [1] was 39.8 µM [rising, partial curve]. As to `Cc1ccc(Cl)cc1NC(=O)CSc1nc2c(c(=O)[nH]1)CN(Cc1ccccc1)CC2`, the AC50 under setting [1] was 25.1 µM [falling, single point].

For `CCOC(=O)c1cccc(NC(=O)CSc2nnc(-c3ccoc3C)n2CCOC)c1`, under setting [1], the concentration at half-maximal activity (AC50) was 25.1 µM [falling, partial curve]. For the compound `Cc1ccccc1C(=O)Nc1ccc(C(=O)OCc2cc(=O)n3nc(C(C)C)sc3n2)cc1`, the concentration at half-maximal activity (AC50) under setting [1] is 12.6 µM [falling, partial curve].

Consider `COC(=O)c1cccc(Nc2nn3c(=O)c4cc5c(cc4nc3s2)OCO5)c1`, for which the concentration at half-maximal activity (AC50) under setting [1] was 0.00631 µM [falling, full curve, poor fit]. `COc1ccc(-c2[nH]c3ccccc3c2SCCNC(=O)c2ccc(S(=O)(=O)N(C)C)cc2)cc1`: under setting [1], the concentration at half-maximal activity (AC50) was 1.26 µM [falling, full curve]. As to `COC(=O)Nc1nc2ccc(Sc3ccccc3)cc2[nH]1`, the AC50 under setting [2] is 0.631 µM [rising, full curve] and the AC50 under setting [3] was 0.794 µM [rising, full curve]. With `O=C(CSC1=Nc2ccccc2N=C(c2ccc(F)cc2)C1)NCc1ccccc1Cl`, the AC50 under setting [1] is 12.6 µM [falling, partial curve, poor fit]. `CCOc1ccc(CNC(=O)c2sc3ncnc(N(C)C4CCCCC4)c3c2C)cc1`: under setting [1], the half-maximal activity concentration (AC50) was 39.8 µM [falling, single point]. The same measure, in the same setting: with `NC(=O)c1ccccc1NC(=O)Cn1nc(Cc2cccnc2)c2ccccc2c1=O` the figure was 25.1 µM [falling, single point]. `COCCN1Cc2cccc(C(=O)Nc3ccc(C)cc3C)c2C1=O`: the concentration at half-maximal activity (AC50) under setting [1] is 10 µM [falling, partial curve]. Still for that read-out and setting: with `CCN(C(=O)C1CCN(S(=O)(=O)c2ccc3c(c2)CCCN3C(=O)C2CCC2)CC1)c1cccc(C)c1` the figure was 39.8 µM [falling, partial curve, poor fit].

`Cc1c(C(=O)NCc2ccc(N(C)C)cc2)oc2c1-c1nn(Cc3cccc(Cl)c3)cc1CC2`: the AC50 under setting [1] is 15.8 µM [falling, partial curve]. On the same count and under the same terms, under `COc1ccc(-c2nc(-c3ccccc3)c(-c3ccccc3)[nH]2)cc1Br` stands 3.16 µM [falling, full curve]; under `Oc1c(I)cc(Cl)c2cccnc12`, 316 nM [rising, full curve, poor fit] [measured here: IkB-luc green channel]. `CCCC12CN3CC(CCC)(CN(C1)C3c1c[nH]c3ccccc13)C2=O` (stereo not drawn): under setting [1], the half-maximal activity concentration (AC50) is 10 µM [falling, partial curve]. With `COc1ccc2c(=O)cc(-c3ccncc3)oc2c1OC`, the AC50 under setting [1] is 3.98 µM [falling, partial curve]. Still for that read-out and setting: under `COc1ccc(CCNC(=O)c2cc(-c3ccccc3)nc3ccccc23)cc1OC` stands 25.1 µM [falling, partial curve]; under `CCn1cc(C(=O)OCC(=O)Nc2cc(C)cc(C)c2)c(=O)c2ccc(C)nc21`, 3.16 µM [rising, full curve, poor fit].

Consider `O=C(CSc1nc2ccccc2c(=O)n1CCC(=O)NC1CCCCC1)Nc1ccccc1Cl`, for which the AC50 under setting [1] is 3.16 µM [rising, single point]. With `Cc1nn(CCCC(=O)NCc2ccccc2)c(=O)c2nn(-c3ccccc3)c(C)c12`, under setting [1], the AC50 was 12.6 µM [falling, single point]. As to `CC(C)c1nnc(N2C(=O)c3oc4ccccc4c(=O)c3C2c2cccc(O)c2)s1` (stereo not drawn), the AC50 under setting [1] is 20 µM [falling, single point].

For the compound `O=C(CSc1cn(CC(=O)N2CCCCCC2)c2ccccc12)Nc1ccccc1F`, the concentration at half-maximal activity (AC50) under setting [1] was 20 µM [falling, partial curve]. Consider `CCc1nnc2c(NCc3ccccc3OC)nc3ccccc3n12`, for which, under setting [1], the AC50 was 7.94 µM [falling, full curve]. For `CCOc1ccc(CC(=O)Nc2nnc3n2CCS3)cc1`, under setting [1], the concentration at half-maximal activity (AC50) is 1 µM [rising, full curve, poor fit]. On to `COc1ccc(C(=O)c2cn(Cc3ccc(C)cc3)c3cc4c(cc3c2=O)OCO4)cc1`, for which the half-maximal activity concentration (AC50) under setting [1] is 3.98 µM [falling, single point].

For `COc1ccc2nc(N3CCCC(O)C3)c(C#N)cc2c1` (stereo not drawn), the AC50 is, setting by setting: under setting [2], 39.8 µM [rising, single point]; under setting [3], 20 µM [rising, partial curve]. `COc1cc(NC(=O)CCS(=O)(=O)c2nc(-c3cccs3)cc(C(F)(F)F)n2)cc(OC)c1OC`: under setting [1], the AC50 is 3.16 µM [falling, full curve]. Consider `Cc1c(Cl)cccc1NC(=O)CCn1c(=O)c2cccn2c2ccccc21`, for which the half-maximal activity concentration (AC50) under setting [1] is 31.6 µM [falling, single point]. Still for that read-out and setting: with `c1ccc2c(c1)oc1c(NCc3ccc4c(c3)OCO4)ncnc12` the figure was 15.8 µM [falling, partial curve]; with `CC(CNC(=O)C1CCN(Cc2cc3ccccc3n2Cc2ccccc2)CC1)c1ccccc1` (stereo not drawn), 25.1 µM [falling, partial curve]. The same measure, in the same setting: under `Cc1ccc2c(CC(=O)Nc3ccccc3C(F)(F)F)coc2c1C` stands 3.16 µM [falling, partial curve]; under `CCOc1ccccc1NC(=O)CSc1nccn1-c1ccc(Cl)cc1`, 3.16 µM [falling, partial curve]; under `COc1cc2c(cc1OC)C(C)N(C(=O)Cn1ncc3c1-c1ccccc1OC3)CC2` (stereo not drawn), 15.8 µM [falling, partial curve].

The term AC50 denotes the concentration giving half of the maximal activity seen.
